## Library screen at single concentrations

Source: ChEMBL document CHEMBL3988442, “University of Dundee, Small-Polar-MMV Screening Library” (2021).

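Whole-cell growth test on Mycobacterium tuberculosis, read after 3 days in glucose-containing 7H9 medium; the read-out is not stated. Compounds at 50 µM. The record gives no direction; compounds that gave an IC50 in retests scored well above the rest, so higher reads as more growth inhibition. Of about 69,000 compounds tested this way, about 760 (1.1%) reached 50% or more in at least one test.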

Values are the deposited “Percent Effect”, in %. How 0% and 100% were set is not recorded. Most values in the screen are low, and negative values occur. The compounds are a random part of those screened. Two or more numbers in one place are separate tests of the same structure; such repeats can differ widely.

{"compound": "O=S(=O)(NCc1ccccc1)N1CCN(c2ncccn2)CC1", "effect": -6.469}
{"compound": "Cc1nc2sccn2c1CN(CCCN(C)C)Cc1ccccn1.O=C(O)CC(O)(CC(=O)O)C(=O)O", "effect": 3.151}
{"compound": "CS(=O)(=O)N1CCCC12CCCN(C(=O)c1cc(F)cc(F)c1)C2", "stereo": "stereo not given", "effect": "-7.493 and 0.4267"}
{"compound": "O=C1CC(Cc2ccc(NC(=O)c3cccc(F)c3)cc2)C(=O)N1", "stereo": "stereo not given", "effect": -24.88}
{"compound": "O=C(O)C(F)(F)F.O=C(O)C(F)(F)F.c1cnc(N2CCC3(COCCN(CC4CC4)C3)C2)nc1", "stereo": "stereo not given", "effect": -26.56}
{"compound": "FC(F)(F)c1cccc(C2(CNCc3ccncc3)CCOCC2)c1", "effect": -48.77}
{"compound": "CC(C)n1nc(O)c2c1NC(=O)CSC2c1cnn(C)c1", "stereo": "stereo not given", "effect": 6.579}
{"compound": "Cc1cc(C)n(CC2CN(Cc3nc4ccccc4s3)CCO2)n1", "stereo": "stereo not given", "effect": 22.13}
{"compound": "CS(=O)(=O)CCNC(=O)Nc1sc2ccccc2c1Cl", "effect": 25.04}
{"compound": "CC(=O)N1CCCC2(CCN(c3ccccc3)C2=O)C1", "stereo": "stereo not given", "effect": -35.88}
{"compound": "O=C(O)C(F)(F)F.[H][C@@]12C[C@H](C(=O)N3CCCC3)CN(CC3CCOCC3)[C@]1([H])CCO2", "effect": "-6.884 and -9.809"}
{"compound": "[H][C@]12C[C@@H](CNC(=O)c3ccsc3)O[C@]1([H])CN(C(=O)CO)C2", "effect": -18.38}
{"compound": "Cc1cnn(CCC(=O)N2CCN(c3nccs3)CC2)c1", "effect": -44.2}
{"compound": "CC(C)Nc1cccc(CNC(=O)N2CCC(N3CC=CC3)C2)c1", "stereo": "stereo not given", "effect": 13.56}
{"compound": "O=C(NC1CC1)N1CCOCC2(CCN(Cc3cccs3)C2)C1.O=C(O)C(F)(F)F", "stereo": "stereo not given", "effect": 17.22}
{"compound": "O=C(NCC(O)c1ccc(F)c(F)c1)c1ccccc1F", "stereo": "stereo not given", "effect": -12.47}
{"compound": "Cc1c(CN2C[C@@H](O)[C@H](Oc3cccc(F)c3)C2)cnn1C", "effect": 7.789}
{"compound": "CNCc1cnc(Nc2ccccc2)nc1", "effect": "-2.17 and 0.03244"}
{"compound": "CSCCNC(=O)c1ccc(OC2CCN(CC(C)(C)C)CC2)c(Cl)c1", "effect": 14.6}
{"compound": "Cn1c(CNCC2CCCN2c2cccnn2)nc2ccccc21", "stereo": "stereo not given", "effect": 26.99}
{"compound": "CC[C@]12CN3C[C@](CC)(CN(C1)C3c1[nH]c(=O)[nH]c(=O)c1C)C2=O", "stereo": "stereo not given in full", "effect": -49.9}
{"compound": "COc1ccc(CNc2cccnc2-n2cccn2)cc1OC", "effect": "-3.492 and 11.43"}
{"compound": "c1cnc(N2CCC(OCCN3CCCCC3)C2)nc1", "stereo": "stereo not given", "effect": 13.32}
{"compound": "Cc1noc(C)c1CN(C)c1ncnc2onc(C)c12", "effect": 4.234}
{"compound": "COc1cnc(C2(O)CCN(C(=O)c3ccccn3)CC2)c(OC)n1", "effect": 32.55}
{"compound": "Cc1nc2oc(C(=O)N3CCCC3)c(N)c2c2c1CCCC2", "effect": 10.9}
{"compound": "O=C(NCc1cccc(F)c1)NCC(O)c1cccc(F)c1", "stereo": "stereo not given", "effect": 15.12}
{"compound": "COCCC(=O)N1Cc2[nH]nc(COc3cccnc3)c2C1", "effect": "-6.6 and -26"}
{"compound": "CCOc1nnc(CN(CC)CC(=O)Nc2c(F)cccc2F)s1", "effect": -3.834}
{"compound": "COCC(NC1CCSCC1)c1ccnn1C", "stereo": "stereo not given", "effect": "-29.73 and -6.153"}
{"compound": "CC(=O)c1c(O)n(C)c2ccccc12", "effect": "4.332 and -9.291"}
{"compound": "Cc1nn(CC(=O)Nc2cccc(F)c2)c(N)c1C#N", "effect": "1.817 and 4.679"}
{"compound": "O=C(c1cc2c(Cl)cccc2[nH]1)N1CCN(CCc2ccccn2)CC1", "effect": 4.07}

3 of the entries, repeated:

compound,effect
CS(=O)(=O)N1CCCC12CCCN(C(=O)c1cc(F)cc(F)c1)C2 (stereo not given),-7.493% and 0.4267%
COCC(NC1CCSCC1)c1ccnn1C (stereo not given),-29.73% and -6.153%
Cn1c(CNCC2CCCN2c2cccnn2)nc2ccccc21 (stereo not given),26.99%